The list shows a part of the results. Residues, ends and D or L forms follow the SMILES beside them. *: point of attachment. Cbz = O=C(OCc1ccccc1)*
What was measured:
Experiment in all cases: log2 fold change, soluble protein after heating vs DMSO (PISA); higher = thermal stabilisation; K562 cells, 10 uM, 30 min; active = over 0.2 and 3.5 SD of the protein, either way, in both replicates (recomputed)
ibrutinib = compound: C=CC(=O)N1CCC[C@@H](n2nc(-c3ccc(Oc4ccccc4)cc3)c3c(N)ncnc32)C1 [ibrutinib]
Method in brief: (§1)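 Quantification of soluble protein used TMTpro 16plex LC-MS/MS, with channel sums equalised. Samples were the supernatant after 21,000xg for 90 min of pooled aliquots from K562 cells (2×10^6 cells/mL) treated with 10 μM compound for 30 min, heated for 3 min over 48°C-58°C, and extracted in PBS with 0.5% NP-40 at 4°C. Values, from duplicates, describe thermal stability against control samples on a log2 fold-change scale.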

The chains behind the UniProt entries cited, without tags or fusion partners. Where a name states a change or a piece, a line headed by the entry shows the natural chain unless it says otherwise.
UniProt Q04900: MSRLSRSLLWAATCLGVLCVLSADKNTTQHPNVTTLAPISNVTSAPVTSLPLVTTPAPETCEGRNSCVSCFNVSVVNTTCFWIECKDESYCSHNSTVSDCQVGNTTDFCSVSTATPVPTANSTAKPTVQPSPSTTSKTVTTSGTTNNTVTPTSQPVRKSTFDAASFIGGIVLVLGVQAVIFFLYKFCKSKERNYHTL
UniProt P34810: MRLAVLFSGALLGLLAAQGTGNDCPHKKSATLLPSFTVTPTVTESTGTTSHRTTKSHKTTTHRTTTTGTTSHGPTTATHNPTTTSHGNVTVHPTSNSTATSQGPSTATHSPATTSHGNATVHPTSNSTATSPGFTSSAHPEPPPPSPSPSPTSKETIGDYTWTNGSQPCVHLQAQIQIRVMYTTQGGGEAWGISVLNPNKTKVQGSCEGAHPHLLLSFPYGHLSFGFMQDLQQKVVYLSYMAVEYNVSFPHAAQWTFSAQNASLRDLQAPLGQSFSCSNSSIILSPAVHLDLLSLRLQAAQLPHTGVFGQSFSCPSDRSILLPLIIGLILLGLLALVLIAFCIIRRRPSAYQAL
UniProt A2RUB6: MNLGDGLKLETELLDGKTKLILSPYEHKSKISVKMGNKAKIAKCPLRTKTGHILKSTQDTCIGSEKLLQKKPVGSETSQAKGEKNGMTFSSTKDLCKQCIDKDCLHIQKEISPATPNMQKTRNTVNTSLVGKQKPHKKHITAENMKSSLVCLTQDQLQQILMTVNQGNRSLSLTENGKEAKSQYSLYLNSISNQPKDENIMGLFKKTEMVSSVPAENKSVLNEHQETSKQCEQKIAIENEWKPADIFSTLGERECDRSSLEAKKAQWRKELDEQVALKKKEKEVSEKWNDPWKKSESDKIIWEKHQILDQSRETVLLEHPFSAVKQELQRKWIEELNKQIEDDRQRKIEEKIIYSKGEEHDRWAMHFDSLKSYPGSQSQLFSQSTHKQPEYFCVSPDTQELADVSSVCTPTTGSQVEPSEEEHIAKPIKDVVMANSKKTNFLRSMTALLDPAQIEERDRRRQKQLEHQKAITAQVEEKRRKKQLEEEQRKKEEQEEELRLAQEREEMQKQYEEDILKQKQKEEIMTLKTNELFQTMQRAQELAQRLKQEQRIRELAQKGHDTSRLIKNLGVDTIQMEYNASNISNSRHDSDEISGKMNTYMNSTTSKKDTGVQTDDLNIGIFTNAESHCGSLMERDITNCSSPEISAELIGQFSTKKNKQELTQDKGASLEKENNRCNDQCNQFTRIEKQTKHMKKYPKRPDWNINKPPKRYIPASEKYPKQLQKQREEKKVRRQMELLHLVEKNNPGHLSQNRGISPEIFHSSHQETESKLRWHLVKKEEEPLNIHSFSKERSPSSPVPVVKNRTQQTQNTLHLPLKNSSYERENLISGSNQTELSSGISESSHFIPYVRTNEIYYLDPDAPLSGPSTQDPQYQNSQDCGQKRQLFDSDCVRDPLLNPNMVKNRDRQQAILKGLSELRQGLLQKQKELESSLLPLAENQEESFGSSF
UniProt Q9UIB8: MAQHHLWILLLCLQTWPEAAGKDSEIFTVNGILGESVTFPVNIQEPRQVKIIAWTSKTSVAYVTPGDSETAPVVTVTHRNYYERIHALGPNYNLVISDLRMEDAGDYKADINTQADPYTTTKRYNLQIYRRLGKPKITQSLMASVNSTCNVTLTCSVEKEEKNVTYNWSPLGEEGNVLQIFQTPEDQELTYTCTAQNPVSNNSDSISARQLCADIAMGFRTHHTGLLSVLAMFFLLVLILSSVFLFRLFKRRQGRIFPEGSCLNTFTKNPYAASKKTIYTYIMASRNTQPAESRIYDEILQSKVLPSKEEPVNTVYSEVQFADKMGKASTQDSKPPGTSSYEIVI
UniProt P20138, whole entry, looked up: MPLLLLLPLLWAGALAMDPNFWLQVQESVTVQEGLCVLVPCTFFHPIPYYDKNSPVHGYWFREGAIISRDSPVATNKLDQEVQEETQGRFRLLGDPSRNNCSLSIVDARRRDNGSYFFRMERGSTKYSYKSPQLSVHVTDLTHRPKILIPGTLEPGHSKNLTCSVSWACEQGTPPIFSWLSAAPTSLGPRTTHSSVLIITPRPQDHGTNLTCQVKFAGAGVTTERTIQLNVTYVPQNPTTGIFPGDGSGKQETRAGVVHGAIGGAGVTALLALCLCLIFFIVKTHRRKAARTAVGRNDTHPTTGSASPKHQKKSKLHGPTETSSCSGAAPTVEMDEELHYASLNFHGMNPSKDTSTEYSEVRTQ
UniProt Q13951, whole entry, looked up: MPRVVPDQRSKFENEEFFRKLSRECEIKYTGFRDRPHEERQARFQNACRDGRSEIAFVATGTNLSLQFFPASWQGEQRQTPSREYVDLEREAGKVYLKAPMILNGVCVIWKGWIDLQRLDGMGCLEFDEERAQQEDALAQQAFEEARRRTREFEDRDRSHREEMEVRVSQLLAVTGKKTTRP
UniProt Q15834: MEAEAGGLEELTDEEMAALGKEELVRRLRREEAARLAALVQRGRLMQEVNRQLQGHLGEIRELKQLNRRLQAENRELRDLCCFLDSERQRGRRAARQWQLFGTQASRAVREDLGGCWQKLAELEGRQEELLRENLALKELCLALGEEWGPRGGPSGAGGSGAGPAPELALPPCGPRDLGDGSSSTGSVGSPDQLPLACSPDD
UniProt O14936: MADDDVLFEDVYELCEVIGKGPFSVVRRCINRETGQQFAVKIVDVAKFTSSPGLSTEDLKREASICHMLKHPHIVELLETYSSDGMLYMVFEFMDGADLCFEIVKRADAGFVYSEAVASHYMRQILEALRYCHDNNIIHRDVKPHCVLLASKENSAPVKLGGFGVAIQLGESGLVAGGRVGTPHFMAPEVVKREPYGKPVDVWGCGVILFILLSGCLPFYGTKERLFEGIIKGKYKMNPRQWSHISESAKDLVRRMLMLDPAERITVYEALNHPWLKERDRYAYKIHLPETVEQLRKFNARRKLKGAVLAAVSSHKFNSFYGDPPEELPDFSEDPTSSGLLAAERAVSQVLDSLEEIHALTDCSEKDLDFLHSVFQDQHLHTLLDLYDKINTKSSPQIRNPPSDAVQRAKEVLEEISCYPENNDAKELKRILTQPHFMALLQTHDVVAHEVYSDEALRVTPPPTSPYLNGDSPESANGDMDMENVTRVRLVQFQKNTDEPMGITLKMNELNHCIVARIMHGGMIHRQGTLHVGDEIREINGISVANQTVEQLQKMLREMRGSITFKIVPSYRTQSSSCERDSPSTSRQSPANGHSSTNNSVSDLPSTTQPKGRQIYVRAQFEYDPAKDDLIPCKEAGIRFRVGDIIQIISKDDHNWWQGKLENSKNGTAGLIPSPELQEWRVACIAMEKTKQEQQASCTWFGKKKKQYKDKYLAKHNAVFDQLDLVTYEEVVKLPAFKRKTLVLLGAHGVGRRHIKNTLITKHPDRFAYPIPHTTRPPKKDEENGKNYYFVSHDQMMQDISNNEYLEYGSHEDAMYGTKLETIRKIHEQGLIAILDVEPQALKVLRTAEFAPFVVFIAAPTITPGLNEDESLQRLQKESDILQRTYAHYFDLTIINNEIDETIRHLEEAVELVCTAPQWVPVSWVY
UniProt P24864, whole entry, looked up: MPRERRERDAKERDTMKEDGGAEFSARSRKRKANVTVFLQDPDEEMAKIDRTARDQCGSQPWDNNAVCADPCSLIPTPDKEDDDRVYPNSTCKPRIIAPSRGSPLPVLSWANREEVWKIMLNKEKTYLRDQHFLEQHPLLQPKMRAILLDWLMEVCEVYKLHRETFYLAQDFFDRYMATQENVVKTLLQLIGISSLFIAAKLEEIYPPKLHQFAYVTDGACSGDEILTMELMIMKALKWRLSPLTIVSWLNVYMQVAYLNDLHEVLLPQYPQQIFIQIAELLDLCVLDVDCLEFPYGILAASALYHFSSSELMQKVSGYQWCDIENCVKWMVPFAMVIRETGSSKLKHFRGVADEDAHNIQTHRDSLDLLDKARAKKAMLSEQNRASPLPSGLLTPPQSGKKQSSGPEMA
UniProt O60583: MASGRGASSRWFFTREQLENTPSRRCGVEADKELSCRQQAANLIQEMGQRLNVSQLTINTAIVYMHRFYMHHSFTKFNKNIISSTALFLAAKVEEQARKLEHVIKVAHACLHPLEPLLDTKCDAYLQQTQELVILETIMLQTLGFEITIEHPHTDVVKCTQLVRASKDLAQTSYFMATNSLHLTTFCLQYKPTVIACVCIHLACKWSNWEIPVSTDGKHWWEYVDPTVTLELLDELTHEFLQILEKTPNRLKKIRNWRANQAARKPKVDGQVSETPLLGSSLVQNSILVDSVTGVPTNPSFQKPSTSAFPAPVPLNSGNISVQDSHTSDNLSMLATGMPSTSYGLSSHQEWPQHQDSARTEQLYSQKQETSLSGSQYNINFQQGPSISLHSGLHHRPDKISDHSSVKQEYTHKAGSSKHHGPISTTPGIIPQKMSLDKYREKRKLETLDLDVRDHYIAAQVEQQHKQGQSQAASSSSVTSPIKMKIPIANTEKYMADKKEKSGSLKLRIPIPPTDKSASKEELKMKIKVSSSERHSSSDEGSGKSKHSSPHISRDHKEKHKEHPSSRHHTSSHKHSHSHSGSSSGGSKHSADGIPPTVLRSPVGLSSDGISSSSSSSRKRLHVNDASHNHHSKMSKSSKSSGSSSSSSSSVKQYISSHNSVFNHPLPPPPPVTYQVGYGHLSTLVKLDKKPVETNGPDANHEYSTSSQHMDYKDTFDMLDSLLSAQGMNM
UniProt Q6YHK3: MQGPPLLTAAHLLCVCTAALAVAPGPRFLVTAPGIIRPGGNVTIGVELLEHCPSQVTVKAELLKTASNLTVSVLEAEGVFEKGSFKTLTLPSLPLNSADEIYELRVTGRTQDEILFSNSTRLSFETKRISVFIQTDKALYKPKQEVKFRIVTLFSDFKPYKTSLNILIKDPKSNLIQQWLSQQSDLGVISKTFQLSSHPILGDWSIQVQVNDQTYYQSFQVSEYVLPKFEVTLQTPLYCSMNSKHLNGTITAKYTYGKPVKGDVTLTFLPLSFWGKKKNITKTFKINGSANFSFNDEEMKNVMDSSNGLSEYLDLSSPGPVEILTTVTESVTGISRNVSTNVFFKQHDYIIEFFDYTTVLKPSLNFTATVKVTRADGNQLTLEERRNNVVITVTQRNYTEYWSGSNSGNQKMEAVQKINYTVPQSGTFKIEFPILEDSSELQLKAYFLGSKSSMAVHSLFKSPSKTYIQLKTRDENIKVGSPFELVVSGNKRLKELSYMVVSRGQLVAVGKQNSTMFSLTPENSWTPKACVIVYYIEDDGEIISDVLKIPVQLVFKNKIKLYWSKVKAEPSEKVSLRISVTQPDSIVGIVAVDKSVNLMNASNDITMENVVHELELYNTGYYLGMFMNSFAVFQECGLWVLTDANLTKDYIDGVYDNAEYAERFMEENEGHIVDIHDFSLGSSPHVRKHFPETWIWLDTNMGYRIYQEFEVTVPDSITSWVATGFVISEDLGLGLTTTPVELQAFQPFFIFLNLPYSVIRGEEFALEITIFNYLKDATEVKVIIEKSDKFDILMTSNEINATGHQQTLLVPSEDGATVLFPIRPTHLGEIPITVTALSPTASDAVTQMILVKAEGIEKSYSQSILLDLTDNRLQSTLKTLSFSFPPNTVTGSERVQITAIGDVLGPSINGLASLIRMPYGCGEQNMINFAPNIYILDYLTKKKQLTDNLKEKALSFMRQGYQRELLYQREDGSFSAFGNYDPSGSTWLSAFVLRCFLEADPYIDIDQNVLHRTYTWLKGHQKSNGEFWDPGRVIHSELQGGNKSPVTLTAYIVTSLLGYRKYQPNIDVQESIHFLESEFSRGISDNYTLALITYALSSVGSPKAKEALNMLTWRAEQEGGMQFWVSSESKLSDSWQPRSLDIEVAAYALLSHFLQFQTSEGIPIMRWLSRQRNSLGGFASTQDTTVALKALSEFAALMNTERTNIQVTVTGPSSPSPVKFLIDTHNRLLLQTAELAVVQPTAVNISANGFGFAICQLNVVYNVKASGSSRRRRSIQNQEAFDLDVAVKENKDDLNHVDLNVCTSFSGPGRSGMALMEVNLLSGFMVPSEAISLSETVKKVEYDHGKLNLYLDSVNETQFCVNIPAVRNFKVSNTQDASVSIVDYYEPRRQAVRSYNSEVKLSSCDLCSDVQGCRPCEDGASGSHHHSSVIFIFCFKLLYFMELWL
UniProt Q75N03: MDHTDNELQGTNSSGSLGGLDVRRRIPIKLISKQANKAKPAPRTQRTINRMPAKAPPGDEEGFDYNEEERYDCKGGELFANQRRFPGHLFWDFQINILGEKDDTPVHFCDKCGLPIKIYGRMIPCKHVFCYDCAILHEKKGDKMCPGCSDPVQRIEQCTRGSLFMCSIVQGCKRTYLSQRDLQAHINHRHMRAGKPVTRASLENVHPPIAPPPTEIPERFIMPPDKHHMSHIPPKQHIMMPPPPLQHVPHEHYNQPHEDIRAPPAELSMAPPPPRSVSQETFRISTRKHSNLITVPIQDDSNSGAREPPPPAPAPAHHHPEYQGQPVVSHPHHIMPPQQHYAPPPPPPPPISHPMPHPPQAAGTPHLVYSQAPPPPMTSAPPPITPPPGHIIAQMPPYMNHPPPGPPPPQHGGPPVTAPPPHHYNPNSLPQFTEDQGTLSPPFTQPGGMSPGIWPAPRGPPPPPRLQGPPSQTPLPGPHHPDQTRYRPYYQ

[1] = compound: CC(=O)c1cnc2ccc(-c3cc(Cl)c(O)c(Cl)c3)nc2c1N[C@H]1CC[C@H](CN(C)C)CC1
Method in brief: as §1

ralimetinib = compound: CC(C)(C)Cn1c(N)nc2ccc(-c3[nH]c(C(C)(C)C)nc3-c3ccc(F)cc3)nc21 [ralimetinib]
Method in brief: as §1

[2] = compound: CC(C)(O)CC(=O)NCCn1ccc2ncnc(Nc3ccc(Oc4cccc(C(F)(F)F)c4)c(Cl)c3)c21
Method in brief: as §1

[3] = compound: CC(C)C1=C2N=C(C=C(N2N=C1)NCC3=CC=CC=C3)NCCCCCCN
Method in brief: as §1

[4] = compound: CC(C)C[C@@H](C=O)NC(=O)[C@H](CC(C)C)NC(=O)[C@H](CC(C)C)NC(=O)OCc1ccccc1
Method in brief: as §1

[5] = compound: CC1=C(C2=C(C=C1)C(=O)C3=CC=CC=C3N2CCCN)C
Method in brief: as §1

[6] = compound: CC1=C(C=C(C=C1)NC(=O)C2=CC(=CC=C2)N(C)C)NC(=O)C3=CC=C(C=C3)O
Method in brief: as §1

[7] = compound: CC1=CC=C(C=C1)SC2=C3C=C(SC3=CN=C2)C(=O)N
Method in brief: as §1

Nexturastat A = compound: CCCCN(Cc1ccc(C(=O)NO)cc1)C(=O)Nc1ccccc1 [Nexturastat A]
Method in brief: as §1

vemurafenib = compound: CCCS(=O)(=O)Nc1ccc(F)c(C(=O)c2c[nH]c3ncc(-c4ccc(Cl)cc4)cc23)c1F [vemurafenib]
Method in brief: as §1

[8] = compound: CCCS(=O)(=O)Nc1ccc(F)c(C(=O)c2c[nH]c3ncc(Cl)cc23)c1F
Method in brief: as §1

[9] = compound: CCCc1cc(C)[nH]c(=O)c1CNC(=O)c1cc(-c2ccnc(N3CCN(C)CC3)c2)cc2c1cnn2C(C)C
Method in brief: as §1

givinostat = compound: CCN(CC)Cc1ccc2cc(COC(=O)Nc3ccc(C(=O)NO)cc3)ccc2c1 [givinostat]
Method in brief: as §1

barasertib = compound: CCN(CCCOc1ccc2c(Nc3cc(CC(=O)Nc4cccc(F)c4)[nH]n3)ncnc2c1)CCOP(=O)(O)O [barasertib]
Method in brief: as §1

[10] = compound: CC1=C(C(CC(=O)N1)C2=CC=C(C=C2)C(F)(F)F)C(=O)NC3=C(C=C4C(=C3)C=NN4)F
Method in brief: as §1

[11] = compound: CC1=C(C=C(C=C1)NC(=O)C2=CC(=CC=C2)C(C)(C)C#N)NC3=CC4=C(C=C3)N=CN(C4=O)C
Method in brief: as §1

IRAK-1-4 Inhibitor I = compound: C1COCCN1CCN2C3=CC=CC=C3N=C2NC(=O)C4=CC(=CC=C4)[N+](=O)[O-] [IRAK-1-4 Inhibitor I]
Method in brief: as §1

pinometostat = compound: CC(C)N(C[C@H]1O[C@@H](n2cnc3c(N)ncnc32)[C@H](O)[C@@H]1O)[C@H]1C[C@@H](CCc2nc3cc(C(C)(C)C)ccc3[nH]2)C1 [pinometostat]
Method in brief: as §1

[12] = compound: CC1=NC(=CC=C1)C2=C(N=C(N2)C(C)(C)C)C3=CC4=NC=CN=C4C=C3
Method in brief: as §1

Measured: log2 fold change

CCND3 (UniProt P30281)
inactive: ibrutinib -0.063 | [1] 0.078 | ralimetinib -0.076 | [2] 0 | [3] -0.303 | [4] 0.341 | [5] -0.088 | [6] 0.046 | [7] 0.063 | Nexturastat A -0.004 | vemurafenib -0.077 | [8] -0.028 | [9] -0.062 | givinostat 0.021 | barasertib 0.079

CD164 (UniProt Q04900)
inactive: ibrutinib 0.045 | [1] -0.336 | ralimetinib -0.033 | [2] -0.016 | [3] 0.126 | [4] 0.015 | [10] 0.109 | [11] 0.004 | [6] -0.105 | Nexturastat A 0.234 | vemurafenib 0.174 | [9] -0.138 | givinostat 0.068 | barasertib -0.044

CBX3 (UniProt B8ZZ43)
inactive: ibrutinib -0.164 | barasertib 0.049

CD276 (UniProt Q5ZPR3)
inactive: IRAK-1-4 Inhibitor I -0.193 | ibrutinib 0.048 | pinometostat 0.013 | [12] -0.256 | barasertib 0.054

CD68 (UniProt P34810)
active: [3] -0.535
inactive: ibrutinib 0.057 | [11] 0.037 | [9] -0.06 | givinostat -0.091 | barasertib -0.313

CCNL2 (UniProt Q96S94)
inactive: [2] -0.16 | [10] -0.278 | [11] 0.053 | Nexturastat A -0.02

CCDC28B (UniProt Q9BUN5)
inactive: ibrutinib -0.067 | [1] -0.118 | [3] -0.012 | [5] -0.029 | [11] 0.076 | [7] -0.039 | vemurafenib -0.061 | [8] -0.084 | [9] -0.119 | givinostat 0.068 | barasertib -0.064

CCND1 (UniProt P24385)
inactive: ralimetinib 0.145 | [4] 0.141 | [11] -0.211 | [6] 0.04

CCNL1 (UniProt Q9UK58)
inactive: [3] -0.188 | [9] -0.317 | givinostat 0.156

CDADC1 (UniProt Q9BWV3)
inactive: IRAK-1-4 Inhibitor I -0.083 | pinometostat -0.125 | [12] 0.146 | vemurafenib -0.154

CBFA2T2 isoform 4 (UniProt O43439)
inactive: ibrutinib -0.359 | [3] 0.185 | givinostat 0.049 | barasertib 0.395

CCDC66 (UniProt A2RUB6)
inactive: [2] -0.193 | [10] -0.021 | Nexturastat A 0.095 | [9] 0.086

2 records picked at random from the list so far:
CBFA2T2 isoform 4 (UniProt O43439)
inactive: ibrutinib -0.359 | [3] 0.185 | givinostat 0.049 | barasertib 0.395

CCDC66 (UniProt A2RUB6)
inactive: [2] -0.193 | [10] -0.021 | Nexturastat A 0.095 | [9] 0.086

(listing goes on)

CD84 (UniProt Q9UIB8)
inactive: [1] -0.166 | [2] 0.068 | [3] 0.024 | [5] 0.233 | [11] -0.181 | Nexturastat A 0.096 | givinostat 0.006

CASP7 isoform 3 (UniProt P55210)
inactive: ibrutinib -0.005 | [2] -0.003 | [3] 0.035 | Nexturastat A 0.255 | givinostat -0.005 | barasertib -0.249

CD33 (UniProt P20138)
inactive: ralimetinib -0.032 | [2] -0.008 | [3] 0.079 | [4] 0.155 | [5] -0.034 | [11] 0.09 | [6] -0.095 | [7] -0.057 | Nexturastat A 0.138 | vemurafenib -0.1 | [8] -0.05 | givinostat 0.003

CDC27 (UniProt G5EA36)
inactive: ralimetinib 0.142 | [2] 0.115 | [3] -0.025 | [4] 0.399 | [5] -0.135 | [6] 0.119 | [7] 0.156 | Nexturastat A 0.165 | [8] 0.17 | givinostat -0.025

CD82 (UniProt P27701)
inactive: ibrutinib -0.024 | ralimetinib -0.172 | [2] -0.152 | [3] 0.145 | [4] 0.124 | [10] 0.053 | [11] 0.02 | [6] 0.098 | Nexturastat A 0.03 | [9] -0.155 | givinostat 0.091 | barasertib 0.021

CBFB (UniProt Q13951)
inactive: ibrutinib -0.009 | [1] -0.038 | ralimetinib 0.179 | [3] -0.222 | [4] 0.097 | [10] -0.037 | [5] -0.008 | [6] -0.032 | vemurafenib 0.111 | [9] -0.011 | givinostat 0.089 | barasertib 0.017

CCDC85B (UniProt Q15834)
inactive: ibrutinib 0.088 | [1] -0.045 | [3] -0.078 | [5] -0.088 | [11] 0.115 | [7] -0.05 | vemurafenib -0.093 | [8] -0.212 | [9] -0.087 | givinostat 0.062 | barasertib -0.013

CASK (UniProt O14936)
inactive: IRAK-1-4 Inhibitor I 0.036 | [3] 0.177 | pinometostat 0.081 | [12] -0.091 | givinostat -0.06
active: [1] -0.483

CD80 (UniProt P33681)
inactive: [1] 0.204 | ralimetinib 0.008 | [3] 0.093 | [4] 0.013 | [10] 0.013 | [5] 0.018 | [11] 0.104 | [6] -0.104 | [7] -0.009 | [8] 0.024 | [9] -0.111 | givinostat -0.168

CCDC187, A0A1W2PQX5
inactive: [1] -0.14 | ralimetinib -0.237 | [2] 0.201 | [4] 0.001 | [6] -0.105 | Nexturastat A 0.003

CASP9 (UniProt P55211)
inactive: IRAK-1-4 Inhibitor I 0.03 | [1] -0.096 | ralimetinib 0.008 | [2] -0.043 | [4] 0.053 | pinometostat 0.03 | [5] -0.206 | [11] 0.103 | [6] -0.091 | [7] 0.032 | [12] 0.021 | Nexturastat A 0.045 | vemurafenib 0.107 | [8] 0.111

CCNE1 (UniProt P24864)
inactive: ibrutinib 0.013 | [1] -0.134 | ralimetinib -0.004 | [2] 0.108 | [3] 0.251 | [4] 0.031 | [5] -0.226 | [6] 0.063 | [7] 0.024 | Nexturastat A 0.164 | vemurafenib -0.054 | [8] 0.021 | givinostat -0.009 | barasertib 0.033

CDC37 (UniProt K7EKQ2)
inactive: ibrutinib 0.284 | [2] -0.256 | [11] 0.247 | Nexturastat A -0.21 | barasertib 0.026

CD37 (UniProt P11049)
inactive: [1] 0.024 | [10] -0.049 | [5] -0.003 | [7] 0.01 | vemurafenib 0.087 | [8] -0.029

CD46 (UniProt P15529)
inactive: ibrutinib 0.134 | [11] -0.031 | vemurafenib -0.056 | barasertib 0.046

CCNE2 (UniProt O96020)
inactive: IRAK-1-4 Inhibitor I -0.284 | [3] 0.008 | pinometostat 0.064 | [12] 0.101 | givinostat 0.094

CCDC102A (UniProt Q96A19)
inactive: [1] -0.027 | [2] 0.025 | [3] 0.264 | [7] 0.005 | Nexturastat A 0.075 | vemurafenib -0.056 | [8] 0.124 | givinostat 0.002

CCT6B isoform 3 (UniProt Q92526)
inactive: IRAK-1-4 Inhibitor I 0.388 | [1] 0.014 | [3] 0.152 | pinometostat 0.125 | [5] 0.21 | [11] -0.238 | [7] 0 | [12] -0.378 | vemurafenib 0.14 | [8] 0.061 | givinostat 0.414

CCNT2 (UniProt O60583)
inactive: ralimetinib 0.191 | [2] 0.059 | [4] 0.116 | [5] -0.062 | [11] 0.092 | [6] 0.042 | [7] -0.057 | Nexturastat A 0.348 | [8] -0.031 | [9] 0.211
active: [1] -0.797

CD44 (UniProt P16070)
inactive: [1] 0.05 | [5] 0.003 | [11] -0.108 | [7] 0.006 | vemurafenib -0.128 | [8] 0.057

CCNDBP1 (UniProt O95273)
inactive: ibrutinib -0.184 | [1] 0.071 | ralimetinib 0.168 | [3] -0.077 | [4] -0.027 | [5] -0.166 | [11] -0.104 | [6] 0.027 | vemurafenib -0.074 | [9] -0.091 | givinostat -0.046 | barasertib 0.088

CD109 (UniProt Q6YHK3)
inactive: vemurafenib -0.058

2 consecutive entries already listed, quoted:
CD44 (UniProt P16070)
inactive: [1] 0.05 | [5] 0.003 | [11] -0.108 | [7] 0.006 | vemurafenib -0.128 | [8] 0.057

CCNDBP1 (UniProt O95273)
inactive: ibrutinib -0.184 | [1] 0.071 | ralimetinib 0.168 | [3] -0.077 | [4] -0.027 | [5] -0.166 | [11] -0.104 | [6] 0.027 | vemurafenib -0.074 | [9] -0.091 | givinostat -0.046 | barasertib 0.088

More records follow.

CDC25C (UniProt P30307)
inactive: [1] -0.094 | [2] 0.16 | [10] 0.022 | [5] 0.103 | Nexturastat A 0.157 | [9] 0.092

CCDC186 (UniProt Q7Z3E2)
inactive: ibrutinib 0.049 | [3] 0.108 | [10] -0.04 | [11] -0.248 | vemurafenib 0.156 | [9] 0.125 | givinostat 0.258 | barasertib -0.106

CCDC71L isoform 2 (UniProt Q8N9Z2)
inactive: ibrutinib -0.156 | [2] -0.028 | [3] -0.069 | [5] 0.042 | [11] 0.1 | Nexturastat A -0.209 | givinostat 0.403 | barasertib 0.132

CBLL1 (UniProt Q75N03)
inactive: IRAK-1-4 Inhibitor I 0.138 | [1] 0.08 | ralimetinib 0.061 | [3] 0.024 | [4] 0.023 | pinometostat -0.037 | [10] 0.525 | [5] 0.003 | [11] -0.154 | [6] -0.013 | [7] -0.038 | [12] -0.037 | vemurafenib -0.241 | [8] -0.086 | givinostat 0.067

CD9 (UniProt P21926)
inactive: IRAK-1-4 Inhibitor I -0.072 | [1] 0 | [2] 0.059 | pinometostat 0.102 | [5] 0.12 | [11] -0.677 | [12] -0.182 | Nexturastat A 0.034
